# Reference: patent US11220671B2, “Methods for the maturation of cardiomyocytes on amniotic fluid cell-derived ECM, cellular constructs, and uses for cardiotoxicity and proarrhythmic screening of drug compounds” (STEMBIOSYS, INC., priority 2019, dated 2022)
# B1: NAD(P) transhydrogenase, mitochondrial (protein, UniProt Q13423 44-1086, looked up)
# NAD(P) transhydrogenase, …: CKAPVKPGIPYKQLTVGVPKEIFQNEKRVALSPAGVQNLVKQGFNVVVESGAGEASKFSDDHYRVAGAQIQGAKEVLASDLVVKVRAPMVNPTLGVHEADLLKTSGTLISFIYPAQNPELLNKLSQRKTTVLAMDQVPRVTIAQGYDALSSMANIAGYKAVVLAANHFGRFFTGQITAAGKVPPAKILIVGGGVAGLASAGAAKSMGAIVRGFDTRAAALEQFKSLGAEPLEVDLKESGEGQGGYAKEMSKEFIEAEMKLFAQQCKEVDILISTALIPGKKAPVLFNKEMIESMKEGSVVVDLAAEAGGNFETTKPGELYIHKGITHIGYTDLPSRMATQASTLYSNNITKLLKAISPDKDNFYFDVKDDFDFGTMGHVIRGTVVMKDGKVIFPAPTPKNIPQGAPVKQKTVAELEAEKAATITPFRKTMSTASAYTAGLTGILGLGIAAPNLAFSQMVTTFGLAGIVGYHTVWGVTPALHSPLMSVTNAISGLTAVGGLALMGGHLYPSTTSQGLAALAAFISSVNIAGGFLVTQRMLDMFKRPTDPPEYNYLYLLPAGTFVGGYLAALYSGYNIEQIMYLGSGLCCVGALAGLSTQGTARLGNALGMIGVAGGLAATLGVLKPGPELLAQMSGAMALGGTIGLTIAKRIQISDLPQLVAAFHSLVGLAAVLTCIAEYIIEYPHFATDAAANLTKIVAYLGTYIGGVTFSGSLIAYGKLQGLLKSAPLLLPGRHLLNAGLLAASVGGIIPFMVDPSFTTGITCLGSVSALSAVMGVTLTAAIGGADMPVVITVLNSYSGWALCAEGFLLNNNLLTIVGALIGSSGAILSYIMCVAMNRSLANVILGGYGTTSTAGGKPMEISGTHTEINLDNAIDMIREANSIIITPGYGLCAAKAQYPIADLVKMLTEQGKKVRFGIHPVAGRMPGQLNVLLAEAGVPYDIVLEMDEINHDFPDTDLVLVIGANDTVNSAAQEDPNSIIAGMPVLEVWKSKQVIVMKRSLGVGYAAVDNPIFYKPNTAMLLGDAKKTCDALQAKVRESYQK
# B2: Non-syndromic hearing impairment protein 5 (protein, UniProt O60443 1-496, looked up)
# Gasdermin-E: MFAKATRNFLREVDADGDLIAVSNLNDSDKLQLLSLVTKKKRFWCWQRPKYQFLSLTLGDVLIEDQFPSPVVVESDFVKYEGKFANHVSGTLETALGKVKLNLGGSSRVESQSSFGTLRKQEVDLQQLIRDSAERTINLRNPVLQQVLEGRNEVLCVLTQKITTMQKCVISEHMQVEEKCGGIVGIQTKTVQVSATEDGNVTKDSNVVLEIPAATTIAYGVIELYVKLDGQFEFCLLRGKQGGFENKKRIDSVYLDPLVFREFAFIDMPDAAHGISSQDGPLSVLKQATLLLERNFHPFAELPEPQQTALSDIFQAVLFDDELLMVLEPVCDDLVSGLSPTVAVLGELKPRQQQDLVAFLQLVGCSLQGGCPGPEDAGSKQLFMTAYFLVSALAEMPDSAAALLGTCCKLQIIPTLCHLLRALSDDGVSDLEDPTLTPLKDTERFGIVQRLFASADISLERLKSSVKAVILKDSKVFPLLLCITLNGLCALGREHS
# B3: Nucleolar complex protein 3 homolog (protein, UniProt Q8WTT2 1-800, looked up)
# Nucleolar complex protein 3 …: MKARRNKKQIPSFRKLIKTSKVKLENKLKNKQFKQQSTLKKYRKEQRKLRQAVKDAVSKKPIPLENPKEKRPGKRIEREEEEEEEALPLDMMDEDDLQLMKDLGQRVSFLTRDLSSSEPVHAKKRKHERIIDKYEKIPRTLQTAPEKELIHLLPIKDKSGIIPQTREKPVTDSNKDEEDQEEERELEEEIIEDPIQELTIEEHLIERKKKLQEKKMHIAALASAILSDPENNIKKLKELRSMLMEQDPDVAVTVRKLVIVSLMELFKDITPSYKIRPLTEAEKSTKTRKETQKLREFEEGLVSQYKFYLENLEQMVKDWKQRKLKKSNVVSLKAYKGLAEVAVKSLCELLVALPHFNFHNNIIVLIVPLMNDMSKLISEMCCEAVKKLFKQDKLGQASLGVIKVISGFVKGRNYEVRPEMLKTFLCLRIKEVEVKKDTEDINKPKKFMTFKEKRKSLSRMQRKWKKAEEKLERELREAEASESTEKKLKLHTETLNIVFVTYFRILKKAQRSPLLPAVLEGLAKFAHLINVEFFDDLLVVLHTLIESGDLSYQESLHCVQTAFHILSGQGDVLNIDPLKFYTHLYKTLFKLHAGATNEGVEIVLQCLDVMLTKRRKQVSQQRALAFIKRLCTLALHVLPNSSIGILATTRILMHTFPKTDLLLDSESQGSGVFLPELDEPEYCNAQNTALWELHALRRHYHPIVQRFAAHLIAGAPSEGSGALKPELSRRSATELFEAYSMAEMTFNPPVESSNPKIKGKFLQGDSFLNEDLNQLIKRYSSEVATESPLDFTKYLKTSLH
# B4: Nucleolar complex protein 4 homolog (protein, UniProt Q9BVI4 1-516, looked up)
# Nucleolar complex protein 4 …: MEREPGAAGVRRALGRRLEAVLASRSEANAVFDILAVLQSEDQEEIQEAVRTCSRLFGALLERGELFVGQLPSEEMVMTGSQGATRKYKVWMRHRYHSCCNRLGELLGHPSFQVKELALSALLKFVQLEGAHPLEKSKWEGNYLFPRELFKLVVGGLLSPEEDQSLLLSQFREYLDYDDTRYHTMQAAVDAVARVTGQHPEVPPAFWNNAFTLLSAVSLPRREPTVSSFYVKRAELWDTWKVAHLKEHRRVFQAMWLSFLKHKLPLSLYKKVLLIVHDAILPQLAQPTLMIDFLTRACDLGGALSLLALNGLFILIHKHNLEYPDFYRKLYGLLDPSVFHVKYRARFFHLADLFLSSSHLPAYLVAAFAKRLARLALTAPPEALLMVLPFICNLLRRHPACRVLVHRPHGPELDADPYDPGEEDPAQSRALESSLWELQALQRHYHPEVSKAASVINQALSMPEVSIAPLLELTAYEIFERDLKKKGPEPVPLEFIPAQGLLGRPGELCAQHFTLS
# B5: Nucleolar protein 58 (protein, UniProt Q9Y2X3 1-529, looked up)
# Nucleolar protein 58: MLVLFETSVGYAIFKVLNEKKLQEVDSLWKEFETPEKANKIVKLKHFEKFQDTAEALAAFTALMEGKINKQLKKVLKKIVKEAHEPLAVADAKLGGVIKEKLNLSCIHSPVVNELMRGIRSQMDGLIPGVEPREMAAMCLGLAHSLSRYRLKFSADKVDTMIVQAISLLDDLDKELNNYIMRCREWYGWHFPELGKIISDNLTYCKCLQKVGDRKNYASAKLSELLPEEVEAEVKAAAEISMGTEVSEEDICNILHLCTQVIEISEYRTQLYEYLQNRMMAIAPNVTVMVGELVGARLIAHAGSLLNLAKHAASTVQILGAEKALFRALKSRRDTPKYGLIYHASLVGQTSPKHKGKISRMLAAKTVLAIRYDAFGEDSSSAMGVENRAKLEARLRTLEDRGIRKISGTGKALAKTEKYEHKSEVKTYDPSGDSTLPTCSKKRKIEQVDKEDEITEKKAKKAKIKVKVEEEEEEKVAEEEETSVKKKKKRGKKKHIKEEPLSEEEPCTSTAIASPEKKKKKKKKRENED
# B6: Nucleolar transcription factor 1 (protein, UniProt P17480 1-764, looked up)
# Nucleolar transcription …: MNGEADCPTDLEMAAPKGQDRWSQEDMLTLLECMKNNLPSNDSSKFKTTESHMDWEKVAFKDFSGDMCKLKWVEISNEVRKFRTLTELILDAQEHVKNPYKGKKLKKHPDFPKKPLTPYFRFFMEKRAKYAKLHPEMSNLDLTKILSKKYKELPEKKKMKYIQDFQREKQEFERNLARFREDHPDLIQNAKKSDIPEKPKTPQQLWYTHEKKVYLKVRPDATTKEVKDSLGKQWSQLSDKKRLKWIHKALEQRKEYEEIMRDYIQKHPELNISEEGITKSTLTKAERQLKDKFDGRPTKPPPNSYSLYCAELMANMKDVPSTERMVLCSQQWKLLSQKEKDAYHKKCDQKKKDYEVELLRFLESLPEEEQQRVLGEEKMLNINKKQATSPASKKPAQEGGKGGSEKPKRPVSAMFIFSEEKRRQLQEERPELSESELTRLLARMWNDLSEKKKAKYKAREAALKAQSERKPGGEREERGKLPESPKRAEEIWQQSVIGDYLARFKNDRVKALKAMEMTWNNMEKKEKLMWIKKAAEDQKRYERELSEMRAPPAATNSSKKMKFQGEPKKPPMNGYQKFSQELLSNGELNHLPLKERMVEIGSRWQRISQSQKEHYKKLAEEQQKQYKVHLDLWVKSLSPQDRAAYKEYISNKRKSMTKLRGPNPKSSRTTLQSKSESEEDDEEDEDDEDEDEEEEDDENGDSSEDGGDSSESSSEDESEDGDENEEDDEDEDDDEDDDEDEDNESEGSSSSSSSSGDSSDSDSN
# B7: Nucleoplasmin-3 (protein, UniProt O75607 2-178, looked up)
# Nucleoplasmin-3: AAGTAAALAFLSQESRTRAGGVGGLRVPAPVTMDSFFFGCELSGHTRSFTFKVEEEDDAEHVLALTMLCLTEGAKDECNVVEVVARNHDHQEIAVPVANLKLSCQPMLSLDDFQLQPPVTFRLKSGSGPVRITGRHQIVTMSNDVSEEESEEEEEDSDEEEVELCPILPAKKQGGRP
# Assay: Composition of amniotic fluid cell-derived ECM by mass spectrometry (total spectra count)
# Details: amniotic fluid cell-derived ECM Matrix A, mass spectrometry; label = protein component
row,Molecule,Total Spectra Count Matrix A
1,B1,0
2,B2,0
3,B3,0
4,B4,0
5,B5,0
6,B6,0
7,B7,0

# Same assay, conditions: amniotic fluid cell-derived ECM Matrix B, mass spectrometry; label = protein component
row,Molecule,Total Spectra Count Matrix B
1,B1,3
2,B2,2
3,B3,5
4,B4,5
5,B5,6
6,B6,2
7,B7,3

# Same assay, conditions: amniotic fluid cell-derived ECM Matrix C, mass spectrometry; label = protein component
row,Molecule,Total Spectra Count Matrix C
1,B1,0
2,B2,0
3,B3,0
4,B4,0
5,B5,0
6,B6,0
7,B7,0

# Same assay, conditions: amniotic fluid cell-derived ECM Matrix D, mass spectrometry; label = protein component
row,Molecule,Total Spectra Count Matrix D
1,B1,0
2,B2,0
3,B3,0
4,B4,0
5,B5,0
6,B6,0
7,B7,0
